PubChem BioAssay AID1259425 | University of Nebraska Medical Center – 2018
Aim: 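Find knockdowns that reproduce the gene expression pattern seen when KSR1 is lost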 (primary screen). System: HCT116 human colon cancer cells. Reagent: siRNA pool against human genes, 50 nM siRNA. Measured: 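After 50 nM siRNA pool, branched-DNA assay measures six marker transcripts per well, minus blank, normalised to the geometric mean of two housekeeping transcripts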. Reading the numbers: BNIP3L mRNA: higher = more BNIP3L transcript after knockdown; NDRG1 mRNA: higher = more NDRG1 transcript after knockdown; BNIP3 mRNA: higher = more BNIP3 transcript after knockdown.
The whole screen tested about 14,000 reagents; shown is a part drawn at random. A reagent listed more than once was tested more than once; the source does not tell the runs apart. Not all columns of the deposit are shown. The record does not give: the time to read-out.

The first 5 entries, ahead of the listing:
no.	gene	BNIP3L mRNA, set 1	NDRG1 mRNA, set 1	BNIP3 mRNA, set 1
1	DBNL	0.107	0.179	0.462
2	DBNL	0.0721	0.168	0.308
3	TIPARP	0.103	0.0872	0.294
4	ADSL	0.39	0.668	0.349
5	SLC16A6	0.105	0.155	0.313

Main list, repeating the preview:
no.	gene	BNIP3L mRNA, set 1	NDRG1 mRNA, set 1	BNIP3 mRNA, set 1
1	DBNL	0.107	0.179	0.462
2	DBNL	0.0721	0.168	0.308
3	TIPARP	0.103	0.0872	0.294
4	ADSL	0.39	0.668	0.349
5	SLC16A6	0.105	0.155	0.313
6	CACNB4	0.214	0.338	0.358
7	TBC1D14	0.257	0.371	0.455
8	SERPINC1	0.0901	0.208	0.274
9	SNRPN	0.138	0.252	0.344
10	FPR1	0.151	0.142	0.386
11	KBTBD2	0.0988	0.122	0.371
12	CRYBA1	0.058	0.204	0.239
13	UBN1	0.136	0.173	0.272
14	VPS8	0.146	0.172	0.347
15	SLC26A3	0.159	0.161	0.45
16	COX17	0.207	0.143	0.319
17	CCNP	0.0833	0.198	0.351
18	SPANXA1	0.235	1.25	0.361
19	MSN	0.0726	0.0932	0.28
20	TRA2A	0.119	0.105	0.104
21	GDF2	0.122	0.605	0.257
22	USP24	0.082	0.235	0.223
23	SH3TC2	0.139	0.696	0.428
24	ITGA3	0.135	0.134	0.23
25	LIPA	0.112	0.114	0.247
26	GPAM	0.0869	0.0658	0.293
27	FETUB	0.0608	0.144	0.254
28	ATP6V0C	0.226	0.788	0.81
29	TRMT11	0.0937	0.212	0.401
30	OPLAH	0.0904	0.193	0.397
31	CD68	0.103	0.199	0.497
32	RUNDC3A	0.0997	0.153	0.259
33	CD248	0.191	0.182	0.307
34	MCC	0.0639	0.0949	0.302
35	MAGEA9	0.123	0.155	0.318
36	LNPK	0.144	0.247	0.305
37	KDM1A	0.135	0.208	0.304
38	OR5V1	0.241	0.397	0.363
39	DNAJB2	0.0752	0.115	0.379
40	GUK1	0.135	0.0858	0.373
41	ACSL3	0.0709	0.104	0.223
42	TAX1BP3	0.19	0.173	0.325
43	GPSM1	0.146	0.143	0.509
44	ANAPC2	0.068	0.0466	0.195
45	CYP7B1	0.0607	0.0405	0.226
46	SACS	0.157	0.162	0.313
47	ZNF91	0.125	0.246	0.405
48	CUBN	0.0954	0.133	0.281
49	CELSR1	0.176	0.283	0.247
50	LECT2	0.107	0.0989	0.368
